# Results are given in words; binding and its absence hold for the method and conditions named. Binding seen in cells or lysates may run through a third protein. A result given as binding can be weak or reduced; the word gives no strength. Sequences can lack the tags named with a protein.
# Target: T1, HIS-CT635 (C. trachomatis D/UW-3/CX) (UniProt O84640)
# T1 sequence: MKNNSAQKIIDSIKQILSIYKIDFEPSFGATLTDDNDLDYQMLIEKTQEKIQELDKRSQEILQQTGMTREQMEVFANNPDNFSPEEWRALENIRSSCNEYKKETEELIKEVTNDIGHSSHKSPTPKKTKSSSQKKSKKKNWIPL
# Experiment: pull-down; proteins co-expressed in E. coli; His-tagged protein pulled down from the bacterial lysate on Ni2+-NTA-Sepharose (300 mM NaCl, 50 mM NaH2PO4, pH 8.0, 1 h at 4°C); washes with 10 and 50 mM imidazole; fractions eluted in 500 mM imidazole shown by SDS-PAGE and Coomassie blue
substance,measurement,value
CT622 (from UniProt O84627),binding,binds

# Reference: article PMC5962693
